Reference: patent US20120041058A1, “COMPOSITION OF TRADITIONAL CHINESE MEDICINE FOR REDUCING BLOOD FAT AND PREPARATION METHOD THEREOF” (ANJI GREEN LIFE BIOTECH CO., LTD., priority 2009, published 2012)

System: lipid metabolism disorder rat model
Test: Prophylactic administration in the rat model of lipid metabolism disorder (high-fat food)
Assay type: in vivo, SD rats
Protocol: Influence of the prophylactic administration of the blood-lipid-lowering traditional Chinese medicine compositions on the rat model of lipid metabolism disorder. Thirty SD rats were fed with general nutrition food for a week, then the blood collection was carried out via capillary eye canthus for separating serum. The levels of triglyceride (TG), total cholesterol (CHO), high density lipoprotein cholesterol (HDL-C) and low density lipoprotein cholesterol (LDL-C) were determined. According to the above respective item and the body weight index of rats, the animals were sampled and uniformly divided into five groups. [table] […] Then the abdominal aortic bloods were collected, the serum was centrifuging separated, and the levels of AST, ALT, ALP, T-Bil, TG, CHO, HDL-C and LDL-C were determined. Weighing the liver to calculate the liver coefficients. […] Statistic analysis: All of the above indicators are expressed in mean±standard deviation, and compared using the t-test.

[1] = SD rats, high-fat food, 2 weeks, liver lipid extract, dose 10 mg/kg
[2] = SD rats, high-fat food, 2 weeks, serum, dose 10 mg/kg
[3] = SD rats, high-fat food, 2 weeks, dose 10 mg/kg
[4] = SD rats, high-fat food, serum, dose 10 mg/kg
[5] = SD rats, high-fat food, dose 10 mg/kg
[6] = SD rats, serum, baseline, group dose 10 mg/kg

With `CC(C)c1c(C(=O)Nc2ccccc2)c(-c2ccccc2)c(-c2ccc(F)cc2)n1CC[C@@H](O)C[C@@H](O)CC(=O)O` [Atorvastatin] the “CHO content of liver” value [1] was 9.66 ± 1.23 mmol/L, the “TG content of liver” value [1] was 10.37 ± 1.72 mmol/L and the ALP [2] was 43.2 ± 8.8 IU/L. For the same compound, the ALT [2] was 52.7 ± 12.5 IU/L, the AST [2] was 94.3 ± 30.1 IU/L and the T-Bil [2] was 6.61 ± 2.57 µmol/L. The Liver index [3] was 41.49 ± 1.97 mg/g, the Liver weight [3] was 11.06 ± 0.77 g and the “H/L after 2 weeks of administration” value (SD rats, high-fat food, serum HDL-C/LDL-C ratio, dose 10 mg/kg) was 0.90 ± 0.30. The “CHO after 2 weeks of modeling and administration” value [4] was 3.35 ± 0.50 mmol/L, the “HDL-C after 2 weeks of administration” value [4] was 1.04 ± 0.17 mmol/L and the “LDL-C after 2 weeks of administration” value [4] was 1.27 ± 0.47 mmol/L. For the same compound, the “TG after 2 weeks of modeling and administration” value [4] was 2.14 ± 1.03 mmol/L, the “body weight After 1 week of administration” value [5] was 231.2 ± 7.6 g and the “body weight After 2 weeks of administration” value [5] was 255.0 ± 11.0 g. The “body weight After 3 weeks of administration” value [5] was 266.7 ± 13.7 g, the H/L before administion (SD rats, serum HDL-C/LDL-C ratio, baseline, group dose 10 mg/kg) was 2.35 ± 1.44 and the CHO before administion [6] was 1.61 ± 0.35 mmol/L. It also gave an HDL-C before administion [6] of 0.74 ± 0.06 mmol/L, an LDL-C before administion [6] of 0.43 ± 0.24 mmol/L and a TG before administion [6] of 1.52 ± 0.33 mmol/L. For the same compound, the “H/L ratios vs model group” value (oral 10 mg/kg, result in words) was “significantly increased”, the “LDL-C vs model group” value (oral 10 mg/kg, result in words) was “significant effect of reducing LDL-C” and the “serum CHO level of hyperlipidemia rats vs model group” value (oral 10 mg/kg, result in words) was “significantly reduce the serum CHO level”. The “serum HDL-C levels of hyperlipidemia rats vs model group” value (oral 10 mg/kg, result in words) was “significantly increase the serum HDL-C levels”.
